Among all 330,000 compounds or so, about 20 (0.006%) were called active. This list was built around the results that the source calls inconclusive (neither active nor inactive); the mix of calls is not that of the screen. The call rests on the fitted dose curve; in most records, active means well fitted inhibition curve with a large enough effect; inconclusive means small, poorly fitted or top-dose-only effect, or effect the other way; inactive means flat fitted curve, though single readings scatter. Potencies beside an inconclusive call are fits to weak or partial responses and may not hold up.
These compounds were tested against Protein phosphatase EYA2 (Homo sapiens) (UniProt O00167) (assay: qHTS Assay for Inhibitors of the Phosphatase Activity of Eya2). Conditions: recombinant Eya2, OMFP fluorescence dephosphorylation (OMFP is methylfluorescein phosphate); activity, negative = inhibition: at 76.9 µM (top of the series) unless noted.
Method in brief: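 Eya2 (0.2 uM) preincubated 10 min at ambient with compound, then OMFP substrate added at 50 uM; 10 min reaction in 50 mM HEPES pH 7.5, 50 mM NaCl, 5 uM MgCl2, 0.05% BSA, 1 mM DTT. Fluorescence read at Ex 485/Em 525 nm.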
On the % scale 0 is the no-effect control and ±100 the full control effect; potency means the concentration at half of the fitted maximal effect.

By UniProt entry, the sequences of proteins in these tests, tags left out. Where a name states a change or a piece, a line headed by the entry shows the natural chain unless it says otherwise.
UniProt O00167: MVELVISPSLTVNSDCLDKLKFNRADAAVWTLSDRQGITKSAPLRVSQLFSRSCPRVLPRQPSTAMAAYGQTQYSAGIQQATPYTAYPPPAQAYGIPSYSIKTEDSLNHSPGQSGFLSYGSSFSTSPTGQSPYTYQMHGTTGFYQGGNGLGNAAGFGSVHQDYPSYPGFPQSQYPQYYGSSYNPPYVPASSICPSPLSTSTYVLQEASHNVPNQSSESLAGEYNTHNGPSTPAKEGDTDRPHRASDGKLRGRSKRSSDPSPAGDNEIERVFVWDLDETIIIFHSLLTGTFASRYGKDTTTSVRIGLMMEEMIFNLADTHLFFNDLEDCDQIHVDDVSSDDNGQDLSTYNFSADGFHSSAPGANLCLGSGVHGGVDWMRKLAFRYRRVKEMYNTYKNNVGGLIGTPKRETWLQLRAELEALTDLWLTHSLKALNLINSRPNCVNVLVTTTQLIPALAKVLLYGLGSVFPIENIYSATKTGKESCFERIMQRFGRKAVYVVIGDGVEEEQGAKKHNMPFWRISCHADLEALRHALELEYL

| Compound | Potency | activity, negative = inhibition |
| --- | --- | --- |
| CC(NCC(=O)Nc1cc(Cl)cc(Cl)c1)c1ccccc1 (stereo not given) | inconclusive: 25.1 µM [inhibitor, single point] |  |
| COc1ccc2c(c1)c(=O)oc1cc(OCC(=O)N3CCCC(C)C3)ccc12 (stereo not given) | inconclusive: 89.1 µM [inhibitor, single point] |  |
| O=C(Nc1ccccc1)NC1CS(=O)(=O)CC1O (stereo not given) | inactive |  |
| O=C(N/N=C/c1ccc(Br)s1)c1cccs1 | inconclusive: 100 µM [inhibitor, single point] |  |
| CS(=O)(=O)c1ccc2nc(NC(=O)c3cccc([N+](=O)[O-])c3)sc2c1 | inconclusive: 15.8 µM [inhibitor, partial curve] |  |
| CC(C)Cn1nc(-c2ccccc2)c2ccccc2c1=O | inconclusive: 22.4 µM [inhibitor, single point] |  |
| COC(=O)C1=C(C)NC(=S)NC1c1ccc(-c2cc(Cl)ccc2Cl)o1 (stereo not given) | inconclusive: 178 µM [inhibitor, partial curve, poor fit] |  |
| CCOc1cc(/C=C2/SC(=S)N(C)C2=O)ccc1Oc1ccc([N+](=O)[O-])cc1[N+](=O)[O-] | inconclusive: 126 µM [inhibitor, single point] |  |
| COc1ccc(Cl)cc1Nc1ncnc2sc(C)c(S(=O)(=O)N3CCC(C)CC3)c12 | inactive |  |
| Cc1ccc(NC(=O)COC(=O)c2c(-c3ccccc3)noc2C)c(C)c1 | inconclusive: 224 µM [inhibitor, partial curve] |  |
| COc1ccccc1NS(=O)(=O)c1cc(C(=O)N2CCN(C/C=C/c3ccccc3)CC2)ccc1C | inactive |  |
| O=C(O)c1sccc1SCc1ccc(Cl)cc1Cl |  | inconclusive: 33.4% [activator] |
| CCOC(=O)Cc1nnc(Nc2ccc(C)cc2)c2ccccc12 | inactive |  |
| CC(C)Cc1[nH]c(=O)c(C#N)c2c1CCCC2 | inconclusive: 56.2 µM [inhibitor, single point] |  |
| COc1ccc(NC(=S)Nc2ncccc2C)c(OC)c1 | inactive |  |
| COc1ccc(N2C(=NC(=O)C3CCCO3)SC3CS(=O)(=O)CC32)cc1 (stereo not given) | inactive |  |
| CCOC(=O)C1CCN(S(=O)(=O)c2ccc(-c3cc(C(F)(F)F)n(C)n3)s2)CC1 | inactive |  |
| CC(C)CC(C(=O)NC(C)(C)C)N(Cc1ccccc1Cl)C(=O)c1snc(C(N)=O)c1N (stereo not given) | inconclusive: 100 µM [inhibitor, single point] |  |
| COc1ccc(-n2nc3c(=O)[nH][nH]c3cc2=O)cc1 | inconclusive: 89.1 µM [inhibitor, single point] |  |
| CC(=O)NC1=NN(C(C)=O)C(c2ccco2)S1 (stereo not given) | inconclusive: 200 µM [inhibitor, partial curve, poor fit] |  |
| O=C(NCc1ccc2c(c1)OCO2)c1cccnc1Cl | inconclusive: 17.8 µM [inhibitor, single point] |  |
| CCc1ccc(/C=N/NC(=O)c2cc(C)on2)s1 | inactive |  |
| CCNc1nc(NCC)nc(OCC(=O)O)n1 | inconclusive: 100 µM [inhibitor, single point] |  |
| CCOC(=O)CCc1c(C)c2ccc(OCC)c(C)c2oc1=O | inactive |  |

Look-ups from above.
Entry for `CCc1ccc(/C=N/NC(=O)c2cc(C)on2)s1` under Potency: inactive
Entry for `CCOC(=O)Cc1nnc(Nc2ccc(C)cc2)c2ccccc12` under Potency: inactive

Next part.

| Compound | Potency | activity, negative = inhibition |
| --- | --- | --- |
| COc1nc2ccccc2nc1N1CCN(Cc2ccc3c(c2)OCO3)CC1 | inconclusive: 22.4 µM [inhibitor, single point] |  |
| Cc1ccc(OC(=O)c2c(C)nn(-c3ccccc3)c2C)cc1 | inconclusive: 100 µM [inhibitor, single point] |  |
| COc1ccc(C(=O)N/N=C(\Cc2ncc[nH]2)c2ccccc2)cc1 | inconclusive: 251 µM [inhibitor, partial curve, poor fit] |  |
| COc1ccc(-c2noc(CNC(=O)CCCN3C(=O)[C@H]4CC=CC[C@H]4C3=O)n2)cc1 | inconclusive: 25.1 µM [inhibitor, single point] |  |
| COc1ccc(/C=C(\NC(=O)c2ccc(OC)c(OC)c2)C(=O)NCCc2c[nH]c3ccccc23)cc1 | inconclusive: 20 µM [inhibitor, single point] |  |
| C(=N\N1CCN(Cc2ccccc2)CC1)/c1ccccc1 | inactive |  |
| COc1ccc(CNC(=O)c2ccccc2SCC(=O)N2CCCC2)cc1OC | inconclusive: 39.8 µM [inhibitor, partial curve] |  |
| Cc1ccc(NC(=O)c2sc(Cl)nc2-c2ccccc2)cc1 | inactive |  |
| NS(=O)(=O)c1ccc(CCNC(=O)CSc2ccc(Cl)cc2Cl)cc1 | inconclusive: 89.1 µM [inhibitor, single point] |  |
| COc1cc(/C=C2\SC(=S)N(C(Cc3ccccc3)C(=O)O)C2=O)ccc1O (stereo not given) | inconclusive: 79.4 µM [activator, partial curve] |  |
| O=C1c2ccsc2SCCN1Cc1ccc(F)cc1 | inconclusive: 22.4 µM [inhibitor, single point] |  |
| COc1cc(C)c(C(=O)Oc2cc(C)c(C(=O)O)c(O)c2C)c(OC)c1C | inactive |  |
| O=C(c1cccc(Br)c1)N1CCN(c2cnn(-c3ccccc3)c(=O)c2Cl)CC1 | inconclusive: 112 µM [inhibitor, single point] |  |
| Cc1cc(C)cc(NC(=S)NC(=O)C2CC2)c1 | inactive |  |
| O=C(NCc1ccc(Cl)cc1)c1nccnc1CO | inconclusive: 562 µM [inhibitor, partial curve, poor fit] |  |
| COc1ccc2[nH]c3c4c(ccc3c2c1)C(=O)C=CC4=O | inactive |  |
| CCOc1ccc(S(=O)(=O)N2CCN(C(=S)NCc3ccccc3)CC2)cc1 | inconclusive: 89.1 µM [inhibitor, single point] |  |
| O=C(CCNS(=O)(=O)c1cccc2nsnc12)N1CCc2ccccc21 |  | inconclusive: 53.2% [activator] |
| Cc1[nH]c2c(C)cccc2c1CN1CCC(CO)(Cc2ccccc2)CC1 | inconclusive: 100 µM [inhibitor, partial curve, poor fit] |  |
| COc1cc(-c2[nH]ncc2CN(C)Cc2nonc2C)cc(OC)c1OC | inconclusive: 20 µM [inhibitor, single point] |  |
| CC1(c2ccccc2Cl)NC(=O)N(CC(=O)N2CCc3ccccc3C2)C1=O (stereo not given) | inconclusive: 6.31 µM [inhibitor, partial curve, poor fit] |  |
| Cc1ccccc1Nc1nc(NCc2ccco2)c2ccccc2n1 | inactive |  |
| CCN(CC)S(=O)(=O)c1cccc2cccnc12 | inactive |  |

| Compound | Potency | activity, negative = inhibition |
| --- | --- | --- |
| O=C(CN(Cc1ccccc1)C(=O)CCC(=O)Nc1nccs1)NCC1CCCO1 (stereo not given) | inconclusive: 178 µM [inhibitor, partial curve, poor fit] |  |
| CCCCn1nc(NC(=O)COC)c2cc3ccc(C)cc3nc21 | inconclusive: 100 µM [inhibitor, single point] |  |
| COC(=O)C(NC(=O)C(C)NC(=O)OCc1ccccc1)C(C)C (stereo not given) | inconclusive: 631 µM [inhibitor, partial curve, poor fit] |  |
| COc1cccc(/C=N/NC(=O)CNC(=O)c2cccnc2)c1O | inactive |  |
| O=C(NNC(=O)c1nn(-c2ccc(F)cc2)ccc1=O)c1ccccc1Cl | inconclusive: 112 µM [inhibitor, single point] |  |
| Cc1nc(CN(C)Cc2nc(Cc3ccccc3Cl)no2)cs1 | inconclusive: 22.4 µM [inhibitor, single point] |  |
| COC(=O)/C=C1\N/C(=N\c2nc(C)cc(C)n2)N(c2ccccc2)C1=O | inactive |  |
| COc1ccc(NC(=O)Nc2cc3oc4ccccc4c3cc2OC)cc1 | inconclusive: 17.8 µM [inhibitor, single point] |  |
| CC(=O)NCCNC(=O)c1ccc(Sc2ccccc2)c([N+](=O)[O-])c1 | inactive |  |
| Cc1ccc(C(=O)OCC(=O)NCc2cc(C)c(O)c(C)c2)cc1S(=O)(=O)N1CCCCC1 | inconclusive: 22.4 µM [inhibitor, single point] |  |
| O=C(NC1CCCCC1)C(c1ccc2ncccc2c1)N(Cc1ccc2c(c1)OCO2)C(=O)c1cccs1 (stereo not given) | inconclusive: 25.1 µM [inhibitor, single point] |  |
| COC(=O)C(Cc1ccc(OC(=O)c2ccc(C(F)(F)F)cc2)cc1)N1Cc2ccccc2C1=O (stereo not given) | inconclusive: 35.5 µM [inhibitor, single point] |  |
| O=C1NCCN/C1=C\C(=O)c1cccc(Br)c1 | inconclusive: 22.4 µM [inhibitor, single point] |  |
| Cc1cc(-c2nc(-c3ccncc3)no2)ccc1[N+](=O)[O-] | inconclusive: 28.2 µM [inhibitor, single point] |  |
| CCc1nnc(N/N=C/c2cc(C)c(C)cc2C)n1N | inconclusive: 89.1 µM [inhibitor, single point] |  |
| CCOCCN(C(=O)c1ccccc1Cl)c1ccccc1 | inconclusive: 200 µM [inhibitor, partial curve, poor fit] |  |
| Cc1nn(CCC(=O)NNC(=S)NCC(C)C)c(C)c1Br | inactive |  |
| O=c1ccc(Oc2nc(N3CCOCC3)nc(N3CCOCC3)n2)n[nH]1 | inconclusive: 25.1 µM [inhibitor, partial curve] |  |
| CC1CN(c2ccc(NC(=S)Nc3ccc(N4CC(C)OC(C)C4)cc3)cc2)CC(C)O1 (stereo not given) | inconclusive: 100 µM [inhibitor, single point] |  |
| O=c1oc(Cc2ccccc2)nc2ccccc12 | inconclusive: 22.4 µM [inhibitor, single point] |  |
| Cc1onc(-c2ccccc2)c1-c1nc2cc(Cl)ccc2c(=O)o1 | inactive |  |
| CCCCC(CC)CN=C(N)NC(N)=NCCCCCCN=C(N)NC(N)=NCC(CC)CCCC (stereo not given) | inconclusive: 56.2 µM [inhibitor, single point] |  |

By substructure, the compounds so far containing a CF3 group (two)

| Compound | Potency | activity, negative = inhibition |
| --- | --- | --- |
| CCOC(=O)C1CCN(S(=O)(=O)c2ccc(-c3cc(C(F)(F)F)n(C)n3)s2)CC1 | inactive |  |
| COC(=O)C(Cc1ccc(OC(=O)c2ccc(C(F)(F)F)cc2)cc1)N1Cc2ccccc2C1=O (stereo not given) | inconclusive: 35.5 µM [inhibitor, single point] |  |

— PubChem BioAssay AID488837 (National Center for Advancing Translational Sciences (NCATS), 2010)
